Experimental data published in US20040048350A1 (priority 2001, published 2004).
At least one structure is not confirmed: it was looked up by name or label, or the drawing left a doubt.

Protein sequences, listed by entry. Tags and fused reporters are not part of them.
UniProt P0A8V2, whole entry: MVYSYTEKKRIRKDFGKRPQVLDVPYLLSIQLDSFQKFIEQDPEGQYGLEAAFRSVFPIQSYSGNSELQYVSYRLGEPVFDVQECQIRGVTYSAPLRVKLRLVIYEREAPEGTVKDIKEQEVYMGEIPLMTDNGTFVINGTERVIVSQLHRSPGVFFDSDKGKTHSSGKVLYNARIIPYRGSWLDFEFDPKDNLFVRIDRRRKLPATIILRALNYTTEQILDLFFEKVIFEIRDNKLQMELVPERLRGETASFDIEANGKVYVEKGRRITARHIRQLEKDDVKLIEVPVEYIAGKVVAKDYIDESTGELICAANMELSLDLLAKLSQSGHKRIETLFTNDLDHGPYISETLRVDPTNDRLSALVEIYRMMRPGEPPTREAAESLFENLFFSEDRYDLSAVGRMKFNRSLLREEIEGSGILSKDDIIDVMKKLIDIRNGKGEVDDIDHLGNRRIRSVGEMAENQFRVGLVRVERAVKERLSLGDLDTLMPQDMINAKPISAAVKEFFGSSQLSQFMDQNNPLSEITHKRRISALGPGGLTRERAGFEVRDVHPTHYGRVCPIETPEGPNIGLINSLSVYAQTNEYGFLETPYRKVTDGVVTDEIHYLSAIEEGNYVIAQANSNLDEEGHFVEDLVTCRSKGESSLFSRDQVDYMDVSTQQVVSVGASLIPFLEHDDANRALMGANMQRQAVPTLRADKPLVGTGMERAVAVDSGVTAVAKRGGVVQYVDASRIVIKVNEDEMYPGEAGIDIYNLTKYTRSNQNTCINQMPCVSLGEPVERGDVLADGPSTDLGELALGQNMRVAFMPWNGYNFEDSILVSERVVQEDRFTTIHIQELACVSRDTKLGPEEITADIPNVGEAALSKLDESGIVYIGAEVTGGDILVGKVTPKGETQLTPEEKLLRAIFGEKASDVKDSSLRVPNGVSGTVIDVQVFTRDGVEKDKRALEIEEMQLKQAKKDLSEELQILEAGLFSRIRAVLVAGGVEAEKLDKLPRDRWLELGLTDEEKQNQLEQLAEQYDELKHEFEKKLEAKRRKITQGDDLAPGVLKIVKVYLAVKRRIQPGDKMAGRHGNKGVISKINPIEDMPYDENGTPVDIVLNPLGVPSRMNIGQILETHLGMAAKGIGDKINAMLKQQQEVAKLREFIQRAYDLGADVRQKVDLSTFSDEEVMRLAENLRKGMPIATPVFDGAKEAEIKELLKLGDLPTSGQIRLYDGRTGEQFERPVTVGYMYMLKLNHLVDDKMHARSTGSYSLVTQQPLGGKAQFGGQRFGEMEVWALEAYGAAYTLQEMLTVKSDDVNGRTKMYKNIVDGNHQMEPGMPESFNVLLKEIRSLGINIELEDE

How the values were obtained:
[1] = tested on: Taq cells; assay: Plate assay: sensitivity of Taq cells to rifampicin on solid media; assay type: cell-based, Thermus aquaticus; conditions: 50 μg/ml rifampicin, 65° C., 2 days
[2] = target: E. coli core RNAP (Escherichia coli, UniProt P0A8V2); assay: Transcription on minimal RNA/DNA scaffold, order of addition, E. coli core RNAP; assay type: biochemical
[3] = scaffold added prior to 100 μM rifampicin

CO[C@H]1/C=C/O[C@@]2(C)Oc3c(C)c(O)c4c(O)c(c(/C=N/N5CCN(C)CC5)c(O)c4c3C2=O)NC(=O)/C(C)=C\C=C\[C@H](C)[C@H](O)[C@@H](C)[C@@H](O)[C@@H](C)[C@H](OC(C)=O)[C@@H]1C [rifampicin]
growth of Taq cells on media supplemented with rifampicin [1]: unable to grow
extension of RNA oligos (3-7 nucleotides) by one nucleotide ([2]; 100 μM rifampicin added prior to the scaffold): unable to extend any of the RNA oligos
extension of the 3-nucleotide transcript [2, 3]: block the extension
extension of the longer transcripts (4-7 nucleotides) [2, 3]: no effect
